No constants are given. Whether binding was seen depends on the method and setting. In cells and extracts the contact can be indirect. Some entries that bind do so weakly or less than the wild type.
Legend:
[1] = target: T1, Biotin-Acp-…*…, human HIF-1a ODD peptide, wild type, Pro564 hydroxylated (human); test: [^35S]-pVHL pull-down on streptavidin beads after treatment of the bead-bound peptide with in vitro translated HPH 1; scintillation counting
T1 sequence (peptide, N-terminal Biotin-Acp; hydroxyproline at Pro564 (P* of the printed peptide)): DLDLEALAPYIPADDDFQL

Protein sequences, listed by entry. Tags and fused reporters are not part of them.
UniProt P40337: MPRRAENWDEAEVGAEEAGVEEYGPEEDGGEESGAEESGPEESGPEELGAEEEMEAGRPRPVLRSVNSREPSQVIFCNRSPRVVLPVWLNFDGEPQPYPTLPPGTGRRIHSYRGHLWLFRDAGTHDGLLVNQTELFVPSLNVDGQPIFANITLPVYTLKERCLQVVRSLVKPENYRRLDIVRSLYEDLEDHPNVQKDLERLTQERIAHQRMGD

[2] = target: T2, Biotinylated human HIF-1a ODD peptide with Pro567 to Gly, Pro564 hydroxylated (human); test: [^35S]-pVHL pull-down with synthetic Pro564-hydroxylated biotinylated peptide on streptavidin beads
T2 sequence (peptide, N-terminal biotin; hydroxyproline at Pro564): DLDLEALAPYIGADDDFQL

[3] = target: T1, Biotin-Acp-…*…, human HIF-1a ODD peptide, wild type, Pro564 hydroxylated (human); test: as above
[4] = target: T3, Biotinylated human HIF-1a ODD peptide with L562A, Pro564 hydroxylated (human); test: as above
T3 sequence (peptide, N-terminal biotin; hydroxyproline at Pro564): DLDLEAAAPYIPADDDFQL

binding [1]: binds
binding [2]: binds
binding [3]: binds
binding [4]: binds
Substance: [^35S]-labeled human pVHL (von Hippel Lindau tumor suppressor protein) (from UniProt P40337 1-213)
